Assay results: the supplement of paper PMC10849652
The list shows a part of the results.

Sequences of proteins named here, by UniProt entry; tags and fusion partners are left off. A change or cut given only in a name is not applied to a line headed by its entry.
UniProt Q00722, whole entry, looked up: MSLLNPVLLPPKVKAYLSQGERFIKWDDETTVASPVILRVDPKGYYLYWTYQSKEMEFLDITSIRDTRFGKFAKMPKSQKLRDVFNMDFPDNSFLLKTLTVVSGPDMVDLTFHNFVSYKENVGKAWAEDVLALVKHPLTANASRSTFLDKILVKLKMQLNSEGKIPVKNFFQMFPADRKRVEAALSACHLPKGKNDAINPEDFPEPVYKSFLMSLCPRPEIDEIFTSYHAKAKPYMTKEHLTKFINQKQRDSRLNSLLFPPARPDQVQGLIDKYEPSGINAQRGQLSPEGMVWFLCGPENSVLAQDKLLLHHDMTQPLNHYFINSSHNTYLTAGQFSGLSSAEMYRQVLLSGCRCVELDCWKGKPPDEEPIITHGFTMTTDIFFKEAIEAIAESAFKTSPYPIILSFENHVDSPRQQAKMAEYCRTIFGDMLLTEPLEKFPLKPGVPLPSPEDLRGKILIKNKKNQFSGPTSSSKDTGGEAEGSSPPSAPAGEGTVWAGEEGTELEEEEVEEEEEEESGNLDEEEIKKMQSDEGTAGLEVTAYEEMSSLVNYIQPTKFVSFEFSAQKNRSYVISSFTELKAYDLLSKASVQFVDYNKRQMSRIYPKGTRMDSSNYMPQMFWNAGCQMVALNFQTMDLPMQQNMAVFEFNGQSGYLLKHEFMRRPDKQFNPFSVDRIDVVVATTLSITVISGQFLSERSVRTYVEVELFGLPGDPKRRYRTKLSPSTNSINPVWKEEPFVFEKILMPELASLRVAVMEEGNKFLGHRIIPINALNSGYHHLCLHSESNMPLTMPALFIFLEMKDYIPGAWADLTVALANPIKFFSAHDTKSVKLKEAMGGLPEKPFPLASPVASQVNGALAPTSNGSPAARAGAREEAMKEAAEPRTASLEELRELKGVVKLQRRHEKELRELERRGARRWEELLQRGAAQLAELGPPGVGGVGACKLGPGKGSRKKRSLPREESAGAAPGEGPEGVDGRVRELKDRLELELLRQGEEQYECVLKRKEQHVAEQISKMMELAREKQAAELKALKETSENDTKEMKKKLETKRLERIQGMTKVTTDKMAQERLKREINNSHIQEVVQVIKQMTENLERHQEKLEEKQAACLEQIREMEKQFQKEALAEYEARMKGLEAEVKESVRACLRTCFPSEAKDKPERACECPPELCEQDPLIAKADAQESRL
UniProt Q9NRX4: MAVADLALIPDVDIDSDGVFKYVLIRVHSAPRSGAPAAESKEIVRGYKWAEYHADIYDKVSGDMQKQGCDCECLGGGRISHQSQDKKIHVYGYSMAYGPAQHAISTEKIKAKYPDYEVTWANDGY
UniProt Q9UBF8: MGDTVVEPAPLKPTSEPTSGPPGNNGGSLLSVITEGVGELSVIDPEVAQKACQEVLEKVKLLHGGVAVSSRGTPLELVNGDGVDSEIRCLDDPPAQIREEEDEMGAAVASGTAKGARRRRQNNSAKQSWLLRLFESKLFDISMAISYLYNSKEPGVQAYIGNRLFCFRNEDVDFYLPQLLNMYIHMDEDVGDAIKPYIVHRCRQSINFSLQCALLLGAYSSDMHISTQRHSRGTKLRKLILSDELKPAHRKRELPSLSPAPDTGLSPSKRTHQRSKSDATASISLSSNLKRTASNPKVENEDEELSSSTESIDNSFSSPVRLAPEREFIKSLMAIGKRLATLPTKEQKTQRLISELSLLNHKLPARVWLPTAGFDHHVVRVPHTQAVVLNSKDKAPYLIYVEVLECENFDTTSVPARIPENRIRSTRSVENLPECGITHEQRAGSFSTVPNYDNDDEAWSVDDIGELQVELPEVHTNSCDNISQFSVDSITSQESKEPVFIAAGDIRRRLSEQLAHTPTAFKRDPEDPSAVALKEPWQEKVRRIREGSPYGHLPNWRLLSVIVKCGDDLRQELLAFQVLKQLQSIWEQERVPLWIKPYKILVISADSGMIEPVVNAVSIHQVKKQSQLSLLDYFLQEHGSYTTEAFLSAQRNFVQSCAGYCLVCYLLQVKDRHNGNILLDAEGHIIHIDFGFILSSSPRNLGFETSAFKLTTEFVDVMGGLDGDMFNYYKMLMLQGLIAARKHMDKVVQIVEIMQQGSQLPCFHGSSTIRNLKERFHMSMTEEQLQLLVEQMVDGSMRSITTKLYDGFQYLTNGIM
UniProt Q9NXJ5: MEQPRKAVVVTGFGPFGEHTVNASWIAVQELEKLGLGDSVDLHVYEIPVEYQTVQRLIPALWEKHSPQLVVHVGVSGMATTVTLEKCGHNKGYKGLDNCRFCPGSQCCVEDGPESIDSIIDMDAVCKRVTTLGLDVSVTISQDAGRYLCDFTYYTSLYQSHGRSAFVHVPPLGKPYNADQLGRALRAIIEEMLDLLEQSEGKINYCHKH
UniProt Q96G03: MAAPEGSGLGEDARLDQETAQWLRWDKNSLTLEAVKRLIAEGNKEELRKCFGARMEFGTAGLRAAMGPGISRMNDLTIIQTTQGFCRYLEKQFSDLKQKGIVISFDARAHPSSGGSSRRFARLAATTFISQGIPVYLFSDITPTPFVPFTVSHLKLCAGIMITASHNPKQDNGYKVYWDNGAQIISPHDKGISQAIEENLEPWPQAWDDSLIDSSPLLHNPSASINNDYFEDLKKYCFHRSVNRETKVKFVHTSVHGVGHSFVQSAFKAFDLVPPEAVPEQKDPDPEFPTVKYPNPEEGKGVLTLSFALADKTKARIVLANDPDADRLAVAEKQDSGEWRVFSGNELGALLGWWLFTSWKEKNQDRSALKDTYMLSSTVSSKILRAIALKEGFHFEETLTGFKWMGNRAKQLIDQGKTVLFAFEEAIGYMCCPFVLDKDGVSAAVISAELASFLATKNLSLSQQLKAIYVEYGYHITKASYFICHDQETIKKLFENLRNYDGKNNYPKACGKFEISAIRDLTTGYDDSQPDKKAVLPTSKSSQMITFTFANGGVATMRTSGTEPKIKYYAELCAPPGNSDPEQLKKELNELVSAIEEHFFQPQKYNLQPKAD
UniProt P55347: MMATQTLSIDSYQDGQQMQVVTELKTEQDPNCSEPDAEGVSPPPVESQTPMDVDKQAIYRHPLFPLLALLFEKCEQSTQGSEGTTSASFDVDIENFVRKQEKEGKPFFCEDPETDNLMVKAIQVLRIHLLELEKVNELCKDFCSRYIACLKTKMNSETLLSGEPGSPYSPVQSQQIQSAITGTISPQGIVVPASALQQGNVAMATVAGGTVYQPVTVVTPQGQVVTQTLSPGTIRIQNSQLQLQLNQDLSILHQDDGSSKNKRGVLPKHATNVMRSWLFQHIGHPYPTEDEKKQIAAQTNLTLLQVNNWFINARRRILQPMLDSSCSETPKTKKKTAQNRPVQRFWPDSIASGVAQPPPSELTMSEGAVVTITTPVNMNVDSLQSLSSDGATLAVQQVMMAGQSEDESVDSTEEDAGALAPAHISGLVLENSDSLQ
UniProt P53609, whole entry, looked up: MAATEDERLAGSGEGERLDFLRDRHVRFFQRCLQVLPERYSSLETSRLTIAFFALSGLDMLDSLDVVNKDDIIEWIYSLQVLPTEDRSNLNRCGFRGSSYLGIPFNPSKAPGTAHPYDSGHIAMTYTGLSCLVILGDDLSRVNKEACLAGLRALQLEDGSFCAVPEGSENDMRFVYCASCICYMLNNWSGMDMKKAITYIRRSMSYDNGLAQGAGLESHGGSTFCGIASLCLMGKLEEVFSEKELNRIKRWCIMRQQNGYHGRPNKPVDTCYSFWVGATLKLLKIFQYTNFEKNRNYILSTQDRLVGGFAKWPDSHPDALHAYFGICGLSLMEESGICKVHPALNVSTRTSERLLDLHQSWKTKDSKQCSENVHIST
UniProt O00459, whole entry, looked up: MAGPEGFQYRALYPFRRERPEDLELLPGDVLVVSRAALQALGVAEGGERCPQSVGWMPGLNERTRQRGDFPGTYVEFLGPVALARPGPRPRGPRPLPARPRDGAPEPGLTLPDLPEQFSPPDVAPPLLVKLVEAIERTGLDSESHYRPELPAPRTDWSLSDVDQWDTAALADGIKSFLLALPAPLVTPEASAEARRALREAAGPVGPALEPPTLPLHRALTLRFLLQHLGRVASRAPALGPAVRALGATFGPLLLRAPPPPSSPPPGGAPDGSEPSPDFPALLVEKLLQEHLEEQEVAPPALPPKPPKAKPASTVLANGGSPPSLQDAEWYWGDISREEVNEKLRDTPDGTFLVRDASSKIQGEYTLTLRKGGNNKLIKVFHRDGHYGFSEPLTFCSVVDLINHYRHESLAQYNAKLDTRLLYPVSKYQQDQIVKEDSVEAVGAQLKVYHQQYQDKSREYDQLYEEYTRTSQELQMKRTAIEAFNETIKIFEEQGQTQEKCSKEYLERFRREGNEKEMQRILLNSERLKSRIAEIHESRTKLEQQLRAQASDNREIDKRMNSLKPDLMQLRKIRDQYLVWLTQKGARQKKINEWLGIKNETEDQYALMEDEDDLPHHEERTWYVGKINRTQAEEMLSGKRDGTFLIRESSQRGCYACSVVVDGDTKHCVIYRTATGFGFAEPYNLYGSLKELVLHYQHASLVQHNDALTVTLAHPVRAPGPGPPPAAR
UniProt Q9P1Y6: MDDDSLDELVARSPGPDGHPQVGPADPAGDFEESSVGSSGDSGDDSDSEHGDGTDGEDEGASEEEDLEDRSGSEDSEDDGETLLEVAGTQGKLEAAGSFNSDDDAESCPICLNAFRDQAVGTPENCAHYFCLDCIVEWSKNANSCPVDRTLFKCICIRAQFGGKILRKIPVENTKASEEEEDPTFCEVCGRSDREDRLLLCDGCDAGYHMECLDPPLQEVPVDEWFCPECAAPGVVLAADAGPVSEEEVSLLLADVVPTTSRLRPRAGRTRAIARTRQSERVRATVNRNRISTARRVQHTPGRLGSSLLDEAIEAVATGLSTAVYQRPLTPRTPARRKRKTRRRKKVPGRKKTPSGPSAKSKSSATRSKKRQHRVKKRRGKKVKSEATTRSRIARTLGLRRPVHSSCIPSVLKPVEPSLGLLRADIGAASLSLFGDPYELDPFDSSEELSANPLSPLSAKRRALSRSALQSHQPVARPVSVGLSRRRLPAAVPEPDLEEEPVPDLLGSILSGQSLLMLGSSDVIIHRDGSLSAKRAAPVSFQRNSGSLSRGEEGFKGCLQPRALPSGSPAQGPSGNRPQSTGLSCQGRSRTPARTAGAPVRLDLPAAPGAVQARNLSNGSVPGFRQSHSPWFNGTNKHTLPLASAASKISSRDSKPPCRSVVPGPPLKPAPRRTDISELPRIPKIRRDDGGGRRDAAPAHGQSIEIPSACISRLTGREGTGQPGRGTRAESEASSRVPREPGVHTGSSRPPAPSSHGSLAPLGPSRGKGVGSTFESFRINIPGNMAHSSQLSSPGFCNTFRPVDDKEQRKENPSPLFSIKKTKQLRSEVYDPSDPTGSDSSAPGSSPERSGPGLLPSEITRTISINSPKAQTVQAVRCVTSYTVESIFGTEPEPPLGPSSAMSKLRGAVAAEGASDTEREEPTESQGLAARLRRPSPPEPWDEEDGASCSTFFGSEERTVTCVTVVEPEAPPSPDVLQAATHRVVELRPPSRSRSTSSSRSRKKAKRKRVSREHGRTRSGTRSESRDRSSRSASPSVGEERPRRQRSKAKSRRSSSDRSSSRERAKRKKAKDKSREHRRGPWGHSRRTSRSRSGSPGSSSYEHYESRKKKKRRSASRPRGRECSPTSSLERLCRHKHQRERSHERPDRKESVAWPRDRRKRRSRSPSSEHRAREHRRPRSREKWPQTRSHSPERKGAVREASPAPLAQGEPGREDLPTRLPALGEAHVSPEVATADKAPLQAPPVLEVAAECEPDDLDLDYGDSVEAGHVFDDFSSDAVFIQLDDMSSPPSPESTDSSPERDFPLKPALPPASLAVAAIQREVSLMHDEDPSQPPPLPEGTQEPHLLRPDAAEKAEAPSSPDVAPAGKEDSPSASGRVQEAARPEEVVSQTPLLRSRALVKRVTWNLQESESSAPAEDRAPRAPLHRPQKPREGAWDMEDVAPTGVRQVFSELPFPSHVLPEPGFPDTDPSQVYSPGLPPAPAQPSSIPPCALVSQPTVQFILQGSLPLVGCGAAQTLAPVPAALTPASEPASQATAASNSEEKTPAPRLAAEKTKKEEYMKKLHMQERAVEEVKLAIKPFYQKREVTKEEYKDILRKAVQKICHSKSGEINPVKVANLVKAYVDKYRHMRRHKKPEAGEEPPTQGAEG
UniProt Q9UG56: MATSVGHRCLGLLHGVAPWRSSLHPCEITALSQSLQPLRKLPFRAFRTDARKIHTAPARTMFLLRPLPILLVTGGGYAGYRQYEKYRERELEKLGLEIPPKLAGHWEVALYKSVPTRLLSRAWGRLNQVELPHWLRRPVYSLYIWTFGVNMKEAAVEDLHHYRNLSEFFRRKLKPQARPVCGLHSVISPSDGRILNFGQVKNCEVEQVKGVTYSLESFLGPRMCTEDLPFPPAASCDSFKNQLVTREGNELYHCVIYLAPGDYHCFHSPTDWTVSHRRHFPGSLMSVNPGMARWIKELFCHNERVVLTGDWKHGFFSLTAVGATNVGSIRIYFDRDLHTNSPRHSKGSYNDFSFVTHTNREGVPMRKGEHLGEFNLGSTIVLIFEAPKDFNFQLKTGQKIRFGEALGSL

Key:
Assay in all cases: log2 fold change, soluble protein after heating vs DMSO (PISA); higher = thermal stabilisation; K562 lysate, 10 uM; active = over 0.2 and 3.5 SD of the protein, either way, in both replicates (recomputed)
ibrutinib = compound: C=CC(=O)N1CCC[C@@H](n2nc(-c3ccc(Oc4ccccc4)cc3)c3c(N)ncnc32)C1 [ibrutinib]
Procedure, shortened: (§1)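 A 30 min treatment with 10 μM compound was applied to crude K562 extract at 1 mg/mL protein in PBS pH 7.4 with 1 mM MgCl2. Heating for 3 min spanned 48°C-58°C, after which aliquots were pooled, adjusted to 0.5% NP-40 at 4°C and spun at 21,000xg for 90 min. TMTpro 16plex LC-MS/MS of the supernatant, with channel sums equalised, gave values recorded as log-two fold change in thermal stability against solvent controls, from duplicates.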

[1] = compound: CC(=O)c1cnc2ccc(-c3cc(Cl)c(O)c(Cl)c3)nc2c1N[C@H]1CC[C@H](CN(C)C)CC1
Procedure, shortened: as §1

ralimetinib = compound: CC(C)(C)Cn1c(N)nc2ccc(-c3[nH]c(C(C)(C)C)nc3-c3ccc(F)cc3)nc21 [ralimetinib]
Procedure, shortened: as §1

[2] = compound: CC(C)(O)CC(=O)NCCn1ccc2ncnc(Nc3ccc(Oc4cccc(C(F)(F)F)c4)c(Cl)c3)c21
Procedure, shortened: as §1

[3] = compound: CC(C)C1=C2N=C(C=C(N2N=C1)NCC3=CC=CC=C3)NCCCCCCN
Procedure, shortened: as §1

[4] = compound: CC1=C(C(CC(=O)N1)C2=CC=C(C=C2)C(F)(F)F)C(=O)NC3=C(C=C4C(=C3)C=NN4)F
Procedure, shortened: as §1

[5] = compound: CC1=C(C2=C(C=C1)C(=O)C3=CC=CC=C3N2CCCN)C
Procedure, shortened: as §1

[6] = compound: CC1=C(C=C(C=C1)NC(=O)C2=CC(=CC=C2)C(C)(C)C#N)NC3=CC4=C(C=C3)N=CN(C4=O)C
Procedure, shortened: as §1

[7] = compound: CC1=C(C=C(C=C1)NC(=O)C2=CC(=CC=C2)N(C)C)NC(=O)C3=CC=C(C=C3)O
Procedure, shortened: as §1

[8] = compound: CC1=CC=C(C=C1)SC2=C3C=C(SC3=CN=C2)C(=O)N
Procedure, shortened: as §1

vemurafenib = compound: CCCS(=O)(=O)Nc1ccc(F)c(C(=O)c2c[nH]c3ncc(-c4ccc(Cl)cc4)cc23)c1F [vemurafenib]
Procedure, shortened: as §1

[9] = compound: CCCS(=O)(=O)Nc1ccc(F)c(C(=O)c2c[nH]c3ncc(Cl)cc23)c1F
Procedure, shortened: as §1

barasertib = compound: CCN(CCCOc1ccc2c(Nc3cc(CC(=O)Nc4cccc(F)c4)[nH]n3)ncnc2c1)CCOP(=O)(O)O [barasertib]
Procedure, shortened: as §1

[10] = compound: CC[C@@H]1C(=O)N(C)c2cnc(Nc3ccc(C(=O)NC4CCN(C)CC4)cc3OC)nc2N1C1CCCC1
Procedure, shortened: as §1

volasertib = compound: CC[C@@H]1C(=O)N(C)c2cnc(Nc3ccc(C(=O)N[C@H]4CC[C@H](N5CCN(CC6CC6)CC5)CC4)cc3OC)nc2N1C(C)C [volasertib]
Procedure, shortened: as §1

[11] = compound: CCn1c(C(=O)N(C2CC2)C2CC2)cc2c3c(ncn3C)c(Nc3cc(C)n(C)n3)nc21
Procedure, shortened: as §1

[12] = compound: CCn1cc(-c2ccnc3[nH]c(-c4cccc(CN(C)C)c4)cc23)c(-c2ccc(NC(=O)N(C)C)cc2)n1
Procedure, shortened: as §1

[13] = compound: CN1CCC(CNc2ccc3ncc(-c4cccc(OC(F)(F)F)c4)n3n2)CC1
Procedure, shortened: as §1

saracatinib = compound: CN1CCN(CCOc2cc(OC3CCOCC3)c3c(Nc4c(Cl)ccc5c4OCO5)ncnc3c2)CC1 [saracatinib]
Procedure, shortened: as §1

sotrastaurin = compound: CN1CCN(c2nc(C3=C(c4c[nH]c5ccccc45)C(=O)NC3=O)c3ccccc3n2)CC1 [sotrastaurin]
Procedure, shortened: as §1

Measured: log2 fold change

PLCB2 (UniProt Q00722)
inactive: ibrutinib 0.012 | [1] 0.014 | ralimetinib 0.044 | [2] -0.074 | [3] -0.082 | [4] 0.028 | [5] 0.046 | [6] 0.047 | [7] -0.025 | [8] -0.039 | vemurafenib 0.023 | [9] 0.017 | barasertib 0.142 | [10] 0.02 | volasertib 0.008 | [11] 0.063 | [12] -0.003 | [13] 0.02 | saracatinib -0.09 | sotrastaurin 0.037

PHPT1 (UniProt Q9NRX4)
inactive: ibrutinib -0.011 | [1] 0.032 | ralimetinib -0.037 | [2] 0.039 | [3] -0.038 | [4] -0.067 | [5] 0.005 | [6] -0.024 | [7] -0.029 | [8] 0.032 | vemurafenib -0.056 | [9] -0.015 | barasertib 0.012 | [10] -0.005 | volasertib 0.03 | [11] 0.071 | [12] 0.056 | [13] -0.047 | saracatinib 0.006 | sotrastaurin -0.012

PI4KB (UniProt Q9UBF8)
inactive: ibrutinib -0.044 | [1] 0.208 | ralimetinib 0.021 | [2] -0.021 | [3] -0.004 | [4] -0.015 | [5] -0.018 | [6] 0.022 | [7] 0 | [8] 0.012 | [9] 0.011 | barasertib -0.051 | [10] 0.049 | volasertib -0.026 | [11] -0.016 | [12] -0.038 | [13] 0.134 | saracatinib -0.006 | sotrastaurin 0.012
active: vemurafenib 0.222

PIK3CA (UniProt P42336)
inactive: ibrutinib -0.008 | [1] 0.029 | ralimetinib 0.014 | [2] 0.073 | [3] -0.018 | [4] 0.026 | [5] 0.194 | [6] -0.042 | [7] 0.024 | [8] -0.018 | vemurafenib -0.021 | [9] -0.01 | barasertib 0.008 | [10] 0.044 | volasertib -0.004 | [11] -0.032 | [12] 0.027 | [13] 0.008 | saracatinib -0.074 | sotrastaurin -0.014

PIP4P1 isoform 2 (UniProt Q86T03)
inactive: ibrutinib -0.036 | [1] 0.008 | ralimetinib -0.016 | [2] -0.026 | [3] -0.015 | [4] -0.012 | [5] 0.049 | [6] 0.054 | [7] 0.042 | [8] -0.024 | vemurafenib -0.028 | [9] -0.027 | barasertib 0.077 | [10] 0.079 | volasertib -0.023 | [11] -0.053 | [12] -0.062 | [13] 0.06 | saracatinib 0.056 | sotrastaurin -0.007

PGPEP1 (UniProt Q9NXJ5)
inactive: ibrutinib -0.051 | [1] 0.02 | ralimetinib -0.013 | [2] 0.013 | [3] 0.043 | [4] -0.078 | [5] 0.015 | [6] 0.123 | [7] -0.034 | [8] -0.053 | vemurafenib 0.021 | [9] 0.022 | barasertib -0.036 | [10] -0.091 | volasertib -0.027 | [11] 0.036 | [12] -0.096 | [13] 0.03 | saracatinib 0 | sotrastaurin -0.056

PGM2 (UniProt Q96G03)
inactive: ibrutinib -0.008 | [1] 0.013 | ralimetinib -0.021 | [2] -0.003 | [3] -0.009 | [4] -0.027 | [5] -0.026 | [6] 0.012 | [7] -0.017 | [8] -0.01 | vemurafenib 0.002 | [9] -0.015 | barasertib -0.001 | [10] 0.013 | volasertib 0.036 | [11] -0.01 | [12] 0.025 | [13] 0.019 | saracatinib -0.015 | sotrastaurin -0.014

PKLR (UniProt P30613)
inactive: ibrutinib 0.013 | [1] 0.007 | ralimetinib -0.022 | [2] -0.018 | [3] -0.016 | [4] -0.018 | [5] 0.009 | [6] 0.008 | [7] -0.011 | [8] -0.003 | vemurafenib 0.016 | [9] 0.013 | barasertib -0.024 | [10] 0.045 | volasertib 0.007 | [11] -0.027 | [12] -0.018 | [13] 0.027 | saracatinib -0.012 | sotrastaurin -0.015

PGP (UniProt A6NDG6)
inactive: ibrutinib 0.002 | [1] -0.049 | ralimetinib 0.049 | [2] 0.053 | [3] 0.007 | [4] -0.037 | [5] 0.003 | [6] 0.002 | [7] -0.027 | [8] -0.018 | vemurafenib 0.014 | [9] 0.153 | barasertib -0.017 | [10] -0.005 | volasertib 0.009 | [11] 0.037 | [12] -0.018 | [13] 0.05 | saracatinib -0.034 | sotrastaurin -0.036

PGS1 (UniProt Q32NB8)
inactive: ibrutinib 0.022 | [1] 0.075 | ralimetinib -0.002 | [2] -0.09 | [3] 0.071 | [4] -0.142 | [5] 0.03 | [6] -0.071 | [7] 0.043 | [8] 0.164 | vemurafenib 0.052 | [9] 0.025 | barasertib 0.098 | [10] 0.001 | volasertib -0.09 | [11] 0.035 | [12] 0.024 | [13] -0.157 | saracatinib -0.004 | sotrastaurin -0.062

PKNOX1 (UniProt P55347)
inactive: ibrutinib -0.079 | [1] -0.021 | ralimetinib -0.015 | [2] 0.029 | [3] -0.023 | [4] 0.149 | [5] -0.042 | [6] 0.078 | [7] -0.056 | [8] -0.037 | vemurafenib 0.089 | [9] 0.067 | barasertib 0.008 | [10] -0.022 | volasertib -0.029 | [11] -0.068 | [12] -0.01 | [13] 0.052 | saracatinib 0.02 | sotrastaurin -0.003

PGGT1B (UniProt P53609)
inactive: ibrutinib -0.018 | [1] 0.004 | ralimetinib -0.015 | [2] 0.03 | [3] -0.092 | [4] 0.002 | [5] 0.032 | [6] -0.039 | [7] -0.011 | [8] 0.007 | vemurafenib -0.159 | [9] 0.004 | barasertib 0 | [10] -0.041 | volasertib 0.1 | [11] 0.006 | [12] 0.011 | [13] 0.008 | saracatinib 0.028 | sotrastaurin -0.029

PIK3R2 (UniProt O00459)
inactive: ibrutinib -0.041 | [1] 0.242 | ralimetinib 0.11 | [2] 0.029 | [3] -0.028 | [4] 0.008 | [5] 0.01 | [6] 0 | [7] 0.07 | [8] 0.019 | vemurafenib -0.032 | [9] 0 | barasertib -0.002 | [10] 0.128 | volasertib -0.003 | [11] 0.071 | [12] -0.018 | [13] 0.289 | saracatinib -0.014 | sotrastaurin 0.091

PHRF1 (UniProt Q9P1Y6)
inactive: ibrutinib -0.033 | [1] -0.017 | ralimetinib -0.011 | [2] -0.056 | [3] 0.255 | [4] -0.002 | [5] -0.043 | [6] -0.036 | [7] -0.027 | [8] 0.019 | vemurafenib 0.062 | [9] 0.1 | barasertib 0.006 | [10] 0.077 | volasertib -0.038 | [11] 0.014 | [12] 0.126 | [13] -0.07 | saracatinib -0.019 | sotrastaurin -0.008

Reprinted from the entries so far (3 entries):
PGGT1B (UniProt P53609)
inactive: ibrutinib -0.018 | [1] 0.004 | ralimetinib -0.015 | [2] 0.03 | [3] -0.092 | [4] 0.002 | [5] 0.032 | [6] -0.039 | [7] -0.011 | [8] 0.007 | vemurafenib -0.159 | [9] 0.004 | barasertib 0 | [10] -0.041 | volasertib 0.1 | [11] 0.006 | [12] 0.011 | [13] 0.008 | saracatinib 0.028 | sotrastaurin -0.029

PIK3R2 (UniProt O00459)
inactive: ibrutinib -0.041 | [1] 0.242 | ralimetinib 0.11 | [2] 0.029 | [3] -0.028 | [4] 0.008 | [5] 0.01 | [6] 0 | [7] 0.07 | [8] 0.019 | vemurafenib -0.032 | [9] 0 | barasertib -0.002 | [10] 0.128 | volasertib -0.003 | [11] 0.071 | [12] -0.018 | [13] 0.289 | saracatinib -0.014 | sotrastaurin 0.091

PHRF1 (UniProt Q9P1Y6)
inactive: ibrutinib -0.033 | [1] -0.017 | ralimetinib -0.011 | [2] -0.056 | [3] 0.255 | [4] -0.002 | [5] -0.043 | [6] -0.036 | [7] -0.027 | [8] 0.019 | vemurafenib 0.062 | [9] 0.1 | barasertib 0.006 | [10] 0.077 | volasertib -0.038 | [11] 0.014 | [12] 0.126 | [13] -0.07 | saracatinib -0.019 | sotrastaurin -0.008

Later entries.

PKN1 isoform 2 (UniProt Q16512)
active: [13] -0.483
inactive: ibrutinib 0.011 | [1] -0.107 | ralimetinib -0.001 | [2] 0.008 | [3] 0.006 | [4] 0.091 | [5] 0.021 | [6] 0.048 | [7] 0.035 | [8] 0.05 | vemurafenib 0.013 | [9] 0.049 | barasertib -0.006 | [10] 0.013 | volasertib -0.009 | [11] 0.024 | [12] -0.055 | saracatinib 0.002 | sotrastaurin -0.143

PISD (UniProt Q9UG56)
inactive: ibrutinib -0.018 | [1] -0.034 | ralimetinib -0.01 | [2] -0.107 | [3] -0.004 | [4] 0.014 | [5] 0.006 | [6] 0.098 | [7] 0.112 | [8] 0.033 | vemurafenib -0.025 | [9] -0.027 | barasertib 0.042 | [10] -0.036 | volasertib -0.003 | [11] -0.046 | [12] 0.029 | [13] -0.091 | saracatinib 0.024 | sotrastaurin 0.034
